## Primary screen of a compound library

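Viability assay of Plasmodium falciparum sporozoites; the read-out is not stated. The concentration is filed as 10 mM, unlikely as a test dose, so the dose is not known. The record gives no direction; compounds that gave an IC50 in retests scored well above the rest, so higher reads as lower viability. Strong results were mostly tested again. Size under these conditions: about 34,000 compounds, about 280 of them at 50% or above in at least one test.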

Results are given as percent effect.
The controls that fix the scale are not given in the record; negative values are as filed.
This is an unselected part of the compounds tested.
Two or more numbers in one place are separate tests of the same structure; such repeats can differ widely.

Compound,effect
CNC(=O)CCc1cccc(C2CCCN(c3cc(C)ncn3)C2)n1 (centres undefined),-5.517
CC(C)(C)Nc1nc(-c2cccnc2)c(-c2ccnc(NCCO)n2)s1,10.41
O=C(c1ccccn1)N1CCc2ncnc(N3CCOCC3)c2CC1,-9.465 and 0.8512
CNC(=O)CN1CCOCC2(C1)CN(Cc1csnn1)CCO2 (centres undefined),10.82
c1ccc(-n2ncc(CN3CCCC3Cn3cccn3)n2)cc1 (centres undefined),-16.71
CCn1cc(N2Cc3nc(N4CCOCC4)ncc3C2=O)cn1,-13.38
Cc1nc(C(=O)N2CCCCC2)nn1-c1ccccc1Cl,-14.45
CN(C)C1CCC2(CCN(Cc3nccn3C)CC2)c2ccccc21.O=C(O)C(F)(F)F.O=C(O)C(F)(F)F (centres undefined),12.31
CC(=O)N(C)c1nc(CN2CCOC(Cn3cccn3)C2)cs1 (centres undefined),4.588
CC(C)CN(CC(=O)O)C(=O)c1ccc(F)cc1,2.106
CCc1nc2ccccc2c(=O)n1CC1(O)CCN(S(C)(=O)=O)CC1.Cl,-8.412
CC(C)c1cc(NC(=O)CN2CCc3c(nc(C(C)C)n3C)C2)on1,22.89
Cc1c2c(C(F)F)cc(SCC(=O)O)nc2nn1C,7.56
COc1cccc(CNCc2cccnc2)c1,12.11
Cc1ccc(C(=O)N(C)Cc2ccc3c(c2)OCO3)c(=O)[nH]1,2.814
CN(Cc1ccncc1)C(=O)NCc1nnc2n1CCCCC2,16.78
Cc1cccc(Cc2cc(C)nc(C3CCCNC3)c2)c1 (centres undefined),14.19
O=C(O)C(F)(F)F.[H][C@@]12COC[C@]1(COc1cccnc1)CN(C(=O)c1cc(C3CC3)on1)C2,6.888
C[C@H]1CC[C@H](C(=O)N2CCC(n3cc(C4(O)CCCC4)nn3)CC2)CC1,-44.82 and -32.09
Cc1cnc(N2CCC3(CCN(Cc4csc(C)n4)C3=O)C2)nc1.O=C(O)C(F)(F)F (centres undefined),-4.028
O=C(CN1CCN(CCO)CC1)NC(C1CC1)C1CC1,-13.68
[H][C@]12CCN(S(=O)(=O)N(C)C)C[C@@]1([H])CN(Cc1cnn(C)c1)C2,-0.3352
[H][C@]12CCN(C(=O)CN(C)C)C[C@@]1([H])OCCN(Cc1csc(C)n1)C2,-15.57
Cc1ccc(S(=O)(=O)NC2CNC(=O)C2)cc1C (centres undefined),-14.52
Cc1nc(Nc2ncc(C)s2)cc(C2CCCN2S(C)(=O)=O)n1 (centres undefined),3.334
c1ccc(-c2cnc(CNC3CCCN(c4cccnn4)C3)o2)cc1 (centres undefined),11.11
O=C(c1ccc[nH]1)N1CCCC(c2cc(C(F)(F)F)[nH]n2)C1 (centres undefined),-3.83
CN1CCCC(Cc2ccnc3ccncc23)CC1 (centres undefined),-1.54
Cc1ccoc1C(=O)N1CCCN(Cc2cnn(C)c2)CC1,4.728
Cc1ccc2oc(C(=O)N3CCc4nnc(N(C)C)cc4C3)cc2n1,-19.12
CNCC(=O)N1CCC(c2cccc(Oc3ccccc3)n2)CC1,7.368
COc1cc2c(cc1CN1CCn3c(CO)nnc3C1)CCC2.O=C(O)CC(O)(CC(=O)O)C(=O)O,2.341
Cc1ccccc1CC(=O)N(C)C1CCN(c2ccccn2)CC1,-18.87
CC(=O)N1CCCC1c1cc(N2CCN(CC(C)(C)C)CC2)cc(C)n1 (centres undefined),0.3347
CC(C)[C@@H]1CN(Cc2ccccc2C#N)C[C@H]1NC(=O)N(C)C,-23.98 and -21.35
CC(C)(C)C(=O)NCCC(=O)NC(C)(C)c1ccc2c(c1)OCCO2,-13.11
CCC(CC)c1cc(CNC(=O)N2CCOC(C)C2)on1 (centres undefined),-2.999
Cc1nc(CN(C)C2CCN(CC3CCOCC3)C2)no1 (centres undefined),-8.46
CCN1CCC(Cn2ccc3c(OC)c(OC)ccc3c2=O)C1 (centres undefined),-4.379
CSc1sc(NC(=O)Cc2c(C)nc(C)[nH]c2=O)nc1C,9.893
CCCNC(=O)CSc1nnc2[nH]c(=O)cc(CC)n12,0.8324 and 6.73 and -1.691
O=C1COc2ccc(C(=O)NS(=O)(=O)c3ccccc3Cl)cc2N1,7.451
O=C(c1ccccn1)N1Cc2nccn2CC(COc2cccnc2)C1 (centres undefined),13.53
COCc1nc(C(=O)N2CCCC2c2cc(C)on2)cs1 (centres undefined),-18.47 and 10.77 and -19.61
CN(Cc1nnc(C2CC2)n1C)S(=O)(=O)c1ccc(F)c(C#N)c1,12.62
Cc1ccc(CNC(=O)CN2C=Nc3ccccc3S2(=O)=O)s1,8.394
Cc1cc(CN2CCC(C3Nc4ccccc4S(=O)(=O)N3)CC2)oc1C (centres undefined),10.33
CCn1c(CN(C)C)nnc1C1CCN(c2ccnc(C)c2)CC1,-9.854
NC(=O)c1ccc(N2CCCCC2)c(NC(=O)c2cc(Br)ccc2F)c1,-6.543
O=C1NCCN1CCNCC1(O)CCCN(CCC2CCCCC2)C1=O (centres undefined),3.246
CC(C)c1noc(CN(C)C(=O)C2COc3ccccc3C2)n1 (centres undefined),0.614
Cc1cccc(CN2Cc3ccnn3CC(COCC3CC3)C2)n1.O=C(O)C(F)(F)F (centres undefined),0.4866
Cc1nn(C)c(C)c1CCC(=O)NCc1csc(N2CCCC2)n1,-9.967
Cc1nc(NC2CCCC2)cc(C2CCN2C(=O)c2cccnc2)n1 (centres undefined),-3.673
O=C(NCCNc1ncccn1)c1ccc(Br)cc1,1.885
CCN(CC)S(=O)(=O)c1ccc(CNC(=O)N2CCCCCC2)cc1,-12.75
CC(C)N1CCOC[C@H]1c1nc(C(C)(C)C)c[nH]1,-9.577 and -7.599
O=C(O)C(F)(F)F.O=C(O)C(F)(F)F.[H][C@@]12OCCN(Cc3ccc(C)o3)[C@@]1([H])CC[C@H]2OCc1cccnc1,18.39
O=C(O)C(F)(F)F.[H][C@@]12CN(C(=O)c3ccsc3)C[C@]1([H])OCCN2C(C)C,-3.924
Cc1nc(-c2ccc(CNS(=O)(=O)N(C)C)cc2)ccc1C(N)=O,-2.284
Cc1ccccc1C(C)NC(=O)CSCC#N (centres undefined),5.476
Cc1ccc(CN2CCn3c(CNS(C)(=O)=O)nnc3C2)s1,-2.491
CC(C)C(C(=O)N1CCN(c2nccs2)CC1)n1cncn1 (centres undefined),13.28
Cc1cc(C)nc(N2CCOC(c3cc(CCO)[nH]n3)C2)n1 (centres undefined),8.564
CC(=O)N1CCN(CC2CCOc3ccccc3C2)CC1 (centres undefined),8.287
CCC(C)N(C)CCNC(=O)NCc1cccc(-n2cncn2)c1 (centres undefined),-2.307
CCC[C@H]1CN(c2cncc(C(=O)N(C)C)n2)C[C@@H]1N(C)C,-2.509
CC(NCc1cnc(N2CCOCC2)nc1)c1ccc(Cl)s1.Cl (centres undefined),3.028
O=C(O)C(F)(F)F.O=C(O)C(F)(F)F.[H][C@]12CCN(Cc3cccnc3)CC[C@@]1([H])S(=O)(=O)N(CC(C)C)C2,-5.943
Cc1oc(-c2ccco2)nc1CC(=O)N1CCC(CCO)C1 (centres undefined),11.37
O=C(c1cnn2c1OCCC2)N1CCN(C/C=C/c2ccccc2)CC1,-13.3
O=C(O)C(F)(F)F.[H][C@@]12CCN(c3nnc(C)s3)[C@]1([H])CC[C@@H](c1nc(C)no1)O2,2.102
O=C1N(Cc2ccccc2F)CCCC12CCN(C1CCSCC1)C2 (centres undefined),5.794

Some entries from above, unchanged:

Compound,effect
Cc1ccoc1C(=O)N1CCCN(Cc2cnn(C)c2)CC1,4.728
CC(C)N1CCOC[C@H]1c1nc(C(C)(C)C)c[nH]1,-9.577 and -7.599
NC(=O)c1ccc(N2CCCCC2)c(NC(=O)c2cc(Br)ccc2F)c1,-6.543
Cc1ccccc1C(C)NC(=O)CSCC#N (centres undefined),5.476
O=C1COc2ccc(C(=O)NS(=O)(=O)c3ccccc3Cl)cc2N1,7.451
O=C(NCCNc1ncccn1)c1ccc(Br)cc1,1.885
O=C(c1ccccn1)N1Cc2nccn2CC(COc2cccnc2)C1 (centres undefined),13.53
Cc1ccc2oc(C(=O)N3CCc4nnc(N(C)C)cc4C3)cc2n1,-19.12
CCC[C@H]1CN(c2cncc(C(=O)N(C)C)n2)C[C@@H]1N(C)C,-2.509

From ChEMBL document CHEMBL3988442, “University of Dundee, Small-Polar-MMV Screening Library” (2021).